Data as given in US20090181953A1, “COMPOUND FORMS AND USES THEREOF” (WYETH, priority 2008, published 2009).
Some of these results come from one statement about several compounds together.

Test: solubility of hydrochloride crystal forms
Type: physicochemical

In the case of `COc1ccc(-c2cc(NC(=O)CCCCN3CCCN(C(C)=O)CC3)n[nH]2)cc1.Cl` [Form I, 5-(4-acetyl-1,4-diazepan-1-yl)-N-(5-(4-methoxyphenyl)-1H-pyrazol-3-yl)pentanamide hydrochloric salt Form I], the “solubility in MC/T” value is reported as > 100 mg/mL.
